Measurements reported in PubChem BioAssay AID504764 (Drosophila RNAi Screening Center, 2011)
The deposit covers about 22,000 reagents; below is a random part of those that have a named target and a result. Of all reagents, 403 (1.9%) were called active. 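Unnormalised raw counts per well; ratio z-scores behind the hit calls and whether each hit raises or lowers signal are not deposited.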 A plus sign joins genes that one reagent is predicted to hit. Not given: the amount of reagent.

- Assay: 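Knock-downs that raise or lower a Notch target reporter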 (primary screen)
- System: Drosophila Kc167 cells
- Knock-down reagent: long dsRNA against Drosophila genes
- Duration: about 5 days (4 days dsRNA, then 24 h after transfection)
- Treatment: transfection of constitutively active membrane-tethered Notch lacking the extracellular domain, read 24 h later
- Measured: 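Light from a Notch-responsive E(spl)m3 luciferase reporter under active Notch, with control-promoter and no-Notch reporter wells to normalise; raw counts from paired wells a and b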
- Scale: induced reporter light, run 1, well a and induced reporter light, run 1, well b: higher = more light from the Notch target reporter with active Notch; control promoter light, run 1, well a and control promoter light, run 1, well b: higher = more light from the viral control promoter (cell number, transfection, viability); uninduced reporter light, run 1, well a: higher = more light from the Notch target reporter without active Notch
- Active means: 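Wells with low control signal or poorly matching duplicates excluded; duplicates averaged; per source plate, z beyond ±2 for induced/control log2 ratio or beyond ±1.8 for induced/uninduced marks a hit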
- Calls: active = modifier hit (raised or lowered Notch signal); inactive = not a hit

The opening 4 entries as a preview:
target gene,amplicon,"induced reporter light, run 1, well a","induced reporter light, run 1, well b","control promoter light, run 1, well a","control promoter light, run 1, well b","uninduced reporter light, run 1, well a",Call
CG42758,DRSC10021,2.02e5,1.72e5,1.94e5,1.78e5,10992,inactive
zen,DRSC12632,1.16e5,89700,85270,71400,7100,inactive
nw,DRSC06749,1.28e5,1.14e5,1.88e5,1.76e5,9840,inactive
nw,DRSC06896,1.14e5,78315,86950,61080,7580,inactive

Results, from the first entry:
target gene,amplicon,"induced reporter light, run 1, well a","induced reporter light, run 1, well b","control promoter light, run 1, well a","control promoter light, run 1, well b","uninduced reporter light, run 1, well a",Call
CG42758,DRSC10021,2.02e5,1.72e5,1.94e5,1.78e5,10992,inactive
zen,DRSC12632,1.16e5,89700,85270,71400,7100,inactive
nw,DRSC06749,1.28e5,1.14e5,1.88e5,1.76e5,9840,inactive
nw,DRSC06896,1.14e5,78315,86950,61080,7580,inactive
Lar,DRSC01707,82320,60695,79490,65640,5870,inactive
Lar,DRSC03361,2.06e5,2.12e5,1.81e5,1.98e5,15510,inactive
CG15005,DRSC08459,1.07e5,1.21e5,1.83e5,1.45e5,7005,inactive
CG14259,DRSC14754,1.66e5,1.26e5,1.88e5,1.50e5,12445,inactive
CG5567,DRSC10517,1.44e5,1.22e5,73645,77905,10745,inactive
zormin,DRSC07969,2.30e5,2.23e5,2.65e5,2.29e5,18978,inactive
zormin,DRSC08210,1.00e5,1.22e5,2.38e5,1.90e5,9665,inactive
zormin,DRSC08212,85040,99230,1.81e5,1.98e5,9138,inactive
zormin,DRSC08213,1.43e5,1.30e5,1.44e5,1.64e5,6060,inactive
zormin,DRSC08297,1.19e5,1.29e5,2.02e5,2.29e5,7900,inactive
zormin,DRSC08571,20960,23405,37380,41405,5455,inactive
ICA69,DRSC11621,1.18e5,97515,56050,68265,9450,inactive
Opa1,DRSC07191,1.52e5,1.24e5,1.22e5,1.14e5,10375,inactive
MED30,DRSC08516,31620,36265,62340,60820,8040,inactive
RpL15,DRSC20963,16020,17395,20920,19332,1570,inactive
CG31562 (retired record),DRSC12273,1.23e5,1.24e5,1.19e5,93710,8060,inactive
CG31562 (retired record),DRSC12274,30380,26330,29775,31550,2230,inactive
CG42458,DRSC10335,6520,5035,8000,3050,2295,inactive
Zip42C.1,DRSC05003,1.60e5,1.39e5,1.72e5,1.65e5,10110,inactive
RpS10a,DRSC14161,1.51e5,1.77e5,2.10e5,2.06e5,12410,inactive
CG13358,DRSC18534,1.05e5,1.05e5,1.74e5,2.06e5,8965,inactive
CG13972,DRSC14715,1.80e5,1.21e5,2.35e5,2.49e5,15340,inactive
CG32579,DRSC19872,93895,87795,1.09e5,92475,12715,inactive
Cdk5,DRSC07359,1.08e5,93465,1.88e5,2.04e5,8875,inactive
CG9876,DRSC04586,1.67e5,1.56e5,1.23e5,1.11e5,11365,inactive
CycA,DRSC09132,59005,78595,73905,1.01e5,6278,inactive
CycA,DRSC11123,40480,28305,21165,12880,3055,inactive
mag,DRSC11787,1.36e5,1.33e5,87800,86530,10138,inactive
Miox,DRSC10747,57600,83820,88435,89035,7340,inactive
IRSp53,DRSC10891,77220,77695,1.10e5,94365,4610,inactive
CG32299 + CG32298,DRSC07980,1.94e5,1.73e5,2.08e5,2.28e5,13975,inactive
CG32240,DRSC08093,1.94e5,1.84e5,1.75e5,1.88e5,12478,inactive
Ir60a,DRSC04212,1.65e5,1.39e5,1.43e5,1.54e5,11200,inactive
eIF5,DRSC20165,41175,43355,60655,55315,2475,active
DMAP1,DRSC06044,61225,69875,1.64e5,2.40e5,5440,active
CG8677,DRSC03107,1.35e5,1.32e5,1.15e5,1.49e5,10255,inactive
baf,DRSC03051,1.33e5,1.45e5,1.01e5,1.40e5,13555,inactive
p24-1,DRSC19827,1.25e5,1.33e5,2.18e5,2.20e5,9090,inactive
CG12171,DRSC12200,1.08e5,90420,76400,65730,7610,inactive
MED1,DRSC11808,89745,1.02e5,65300,69870,8410,inactive
Atg2,DRSC08273,1.00e5,82500,1.62e5,1.79e5,7565,inactive
CG33340,DRSC14615,1.87e5,1.44e5,2.30e5,2.57e5,17140,inactive
CG7985,DRSC14128,1.96e5,2.06e5,2.59e5,2.71e5,16138,inactive
Patronin,DRSC06756,1.09e5,1.10e5,1.29e5,1.33e5,12005,inactive
Patronin,DRSC06757,82345,1.07e5,1.56e5,1.19e5,7715,inactive
Patronin,DRSC06994,34445,28335,45180,45480,3620,inactive
